Measured values as given in article PMC12752551.

Amino acid sequences for entries named in this document (tags omitted). Residues count along the entry.
UniProt O43143: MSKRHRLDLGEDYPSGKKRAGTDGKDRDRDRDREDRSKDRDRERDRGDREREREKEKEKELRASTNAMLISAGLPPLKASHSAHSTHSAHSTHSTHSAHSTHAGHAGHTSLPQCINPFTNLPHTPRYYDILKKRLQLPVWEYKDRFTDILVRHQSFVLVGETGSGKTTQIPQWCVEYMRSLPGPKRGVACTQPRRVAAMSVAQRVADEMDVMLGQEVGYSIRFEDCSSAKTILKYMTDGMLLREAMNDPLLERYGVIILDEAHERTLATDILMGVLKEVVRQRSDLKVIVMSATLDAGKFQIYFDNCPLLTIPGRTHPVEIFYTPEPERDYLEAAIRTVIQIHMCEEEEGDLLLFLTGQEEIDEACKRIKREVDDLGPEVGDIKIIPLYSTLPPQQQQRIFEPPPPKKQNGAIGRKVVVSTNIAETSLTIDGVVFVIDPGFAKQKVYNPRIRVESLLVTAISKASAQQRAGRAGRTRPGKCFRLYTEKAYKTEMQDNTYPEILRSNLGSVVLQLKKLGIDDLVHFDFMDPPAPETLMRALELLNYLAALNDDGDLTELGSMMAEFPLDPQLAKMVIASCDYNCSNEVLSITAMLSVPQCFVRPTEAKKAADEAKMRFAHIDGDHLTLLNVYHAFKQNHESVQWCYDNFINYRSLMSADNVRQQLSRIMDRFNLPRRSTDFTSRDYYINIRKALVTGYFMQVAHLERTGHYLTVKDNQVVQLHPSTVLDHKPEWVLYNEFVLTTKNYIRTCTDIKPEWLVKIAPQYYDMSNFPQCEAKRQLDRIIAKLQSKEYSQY
UniProt P08238: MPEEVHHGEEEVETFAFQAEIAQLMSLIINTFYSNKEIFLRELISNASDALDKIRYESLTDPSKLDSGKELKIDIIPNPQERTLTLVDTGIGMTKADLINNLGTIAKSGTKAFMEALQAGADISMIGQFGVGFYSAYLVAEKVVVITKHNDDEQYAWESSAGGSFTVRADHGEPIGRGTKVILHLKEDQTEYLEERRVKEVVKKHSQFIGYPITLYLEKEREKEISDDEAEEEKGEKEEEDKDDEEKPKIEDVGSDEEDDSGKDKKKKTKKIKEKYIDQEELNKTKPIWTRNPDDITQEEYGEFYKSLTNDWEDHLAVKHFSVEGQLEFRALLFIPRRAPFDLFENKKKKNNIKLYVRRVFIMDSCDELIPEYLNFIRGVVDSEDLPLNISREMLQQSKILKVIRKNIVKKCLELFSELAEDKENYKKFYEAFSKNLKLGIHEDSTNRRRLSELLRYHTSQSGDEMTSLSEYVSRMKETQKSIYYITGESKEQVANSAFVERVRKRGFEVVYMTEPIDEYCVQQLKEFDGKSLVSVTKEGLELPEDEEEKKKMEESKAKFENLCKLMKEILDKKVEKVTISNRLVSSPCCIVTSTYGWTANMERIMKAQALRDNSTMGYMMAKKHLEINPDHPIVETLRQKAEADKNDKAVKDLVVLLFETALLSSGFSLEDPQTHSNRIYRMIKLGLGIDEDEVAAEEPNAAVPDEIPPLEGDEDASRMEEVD
UniProt P04264: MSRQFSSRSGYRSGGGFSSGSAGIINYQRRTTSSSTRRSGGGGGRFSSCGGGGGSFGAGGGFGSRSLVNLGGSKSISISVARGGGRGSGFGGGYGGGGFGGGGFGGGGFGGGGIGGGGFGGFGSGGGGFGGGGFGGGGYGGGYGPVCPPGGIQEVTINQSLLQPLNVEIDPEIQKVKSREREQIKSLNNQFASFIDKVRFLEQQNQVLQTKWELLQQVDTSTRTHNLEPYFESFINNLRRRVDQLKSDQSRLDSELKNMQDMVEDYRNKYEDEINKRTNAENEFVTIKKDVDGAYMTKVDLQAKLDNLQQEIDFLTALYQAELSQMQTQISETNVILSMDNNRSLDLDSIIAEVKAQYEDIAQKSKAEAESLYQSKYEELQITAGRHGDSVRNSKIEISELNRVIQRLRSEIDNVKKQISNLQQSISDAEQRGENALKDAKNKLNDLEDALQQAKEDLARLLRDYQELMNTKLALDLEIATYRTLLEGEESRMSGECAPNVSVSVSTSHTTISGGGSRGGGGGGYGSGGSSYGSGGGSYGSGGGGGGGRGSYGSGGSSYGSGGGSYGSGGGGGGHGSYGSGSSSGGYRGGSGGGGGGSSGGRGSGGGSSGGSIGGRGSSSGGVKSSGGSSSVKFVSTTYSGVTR
UniProt O75533: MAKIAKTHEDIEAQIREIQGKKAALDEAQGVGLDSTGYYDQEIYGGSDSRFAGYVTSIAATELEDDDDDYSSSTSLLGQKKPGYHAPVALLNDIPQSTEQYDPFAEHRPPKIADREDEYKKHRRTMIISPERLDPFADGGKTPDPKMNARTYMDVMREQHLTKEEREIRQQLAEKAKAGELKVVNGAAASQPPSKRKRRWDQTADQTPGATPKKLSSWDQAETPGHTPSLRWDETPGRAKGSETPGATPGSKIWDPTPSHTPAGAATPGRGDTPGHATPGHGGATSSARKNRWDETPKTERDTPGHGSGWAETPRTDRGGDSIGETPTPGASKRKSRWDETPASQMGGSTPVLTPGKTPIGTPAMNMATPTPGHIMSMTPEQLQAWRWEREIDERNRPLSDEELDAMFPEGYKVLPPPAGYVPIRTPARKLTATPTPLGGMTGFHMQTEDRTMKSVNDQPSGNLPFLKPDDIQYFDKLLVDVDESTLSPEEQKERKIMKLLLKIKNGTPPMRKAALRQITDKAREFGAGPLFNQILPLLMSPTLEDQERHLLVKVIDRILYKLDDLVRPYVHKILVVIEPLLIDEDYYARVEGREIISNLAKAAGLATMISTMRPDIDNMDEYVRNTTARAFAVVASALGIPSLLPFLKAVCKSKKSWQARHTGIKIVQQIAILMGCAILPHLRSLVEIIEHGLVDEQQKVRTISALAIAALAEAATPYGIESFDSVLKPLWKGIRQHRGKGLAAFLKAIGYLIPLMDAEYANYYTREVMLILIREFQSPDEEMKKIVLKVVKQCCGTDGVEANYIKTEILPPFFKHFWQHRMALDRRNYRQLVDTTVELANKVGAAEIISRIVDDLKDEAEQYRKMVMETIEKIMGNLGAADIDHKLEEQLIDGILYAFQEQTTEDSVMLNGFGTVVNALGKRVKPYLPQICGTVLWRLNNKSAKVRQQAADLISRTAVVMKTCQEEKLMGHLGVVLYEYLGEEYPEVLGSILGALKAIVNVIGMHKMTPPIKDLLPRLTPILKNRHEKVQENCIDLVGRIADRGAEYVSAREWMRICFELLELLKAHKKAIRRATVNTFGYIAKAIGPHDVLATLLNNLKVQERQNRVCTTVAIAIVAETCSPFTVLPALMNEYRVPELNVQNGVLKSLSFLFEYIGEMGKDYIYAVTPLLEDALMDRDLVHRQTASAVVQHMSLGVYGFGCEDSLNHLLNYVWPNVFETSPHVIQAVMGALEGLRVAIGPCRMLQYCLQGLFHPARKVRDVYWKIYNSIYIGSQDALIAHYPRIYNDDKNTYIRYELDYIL
UniProt P02768, residues 25-609: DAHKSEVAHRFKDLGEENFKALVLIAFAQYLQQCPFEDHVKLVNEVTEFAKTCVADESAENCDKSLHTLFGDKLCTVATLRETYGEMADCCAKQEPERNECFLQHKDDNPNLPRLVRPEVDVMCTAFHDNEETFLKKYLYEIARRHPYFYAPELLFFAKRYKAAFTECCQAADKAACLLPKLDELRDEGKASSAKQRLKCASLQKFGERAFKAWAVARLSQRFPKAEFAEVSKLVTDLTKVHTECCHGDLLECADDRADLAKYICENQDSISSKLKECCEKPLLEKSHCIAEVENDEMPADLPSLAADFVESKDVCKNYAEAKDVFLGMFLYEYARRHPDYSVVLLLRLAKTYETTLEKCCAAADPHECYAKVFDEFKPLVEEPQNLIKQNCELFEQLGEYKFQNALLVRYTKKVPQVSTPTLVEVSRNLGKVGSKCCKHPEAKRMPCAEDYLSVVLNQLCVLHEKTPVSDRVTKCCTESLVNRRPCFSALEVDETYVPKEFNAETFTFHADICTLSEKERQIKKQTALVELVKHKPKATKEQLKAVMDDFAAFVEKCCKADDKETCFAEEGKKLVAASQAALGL
UniProt P35579: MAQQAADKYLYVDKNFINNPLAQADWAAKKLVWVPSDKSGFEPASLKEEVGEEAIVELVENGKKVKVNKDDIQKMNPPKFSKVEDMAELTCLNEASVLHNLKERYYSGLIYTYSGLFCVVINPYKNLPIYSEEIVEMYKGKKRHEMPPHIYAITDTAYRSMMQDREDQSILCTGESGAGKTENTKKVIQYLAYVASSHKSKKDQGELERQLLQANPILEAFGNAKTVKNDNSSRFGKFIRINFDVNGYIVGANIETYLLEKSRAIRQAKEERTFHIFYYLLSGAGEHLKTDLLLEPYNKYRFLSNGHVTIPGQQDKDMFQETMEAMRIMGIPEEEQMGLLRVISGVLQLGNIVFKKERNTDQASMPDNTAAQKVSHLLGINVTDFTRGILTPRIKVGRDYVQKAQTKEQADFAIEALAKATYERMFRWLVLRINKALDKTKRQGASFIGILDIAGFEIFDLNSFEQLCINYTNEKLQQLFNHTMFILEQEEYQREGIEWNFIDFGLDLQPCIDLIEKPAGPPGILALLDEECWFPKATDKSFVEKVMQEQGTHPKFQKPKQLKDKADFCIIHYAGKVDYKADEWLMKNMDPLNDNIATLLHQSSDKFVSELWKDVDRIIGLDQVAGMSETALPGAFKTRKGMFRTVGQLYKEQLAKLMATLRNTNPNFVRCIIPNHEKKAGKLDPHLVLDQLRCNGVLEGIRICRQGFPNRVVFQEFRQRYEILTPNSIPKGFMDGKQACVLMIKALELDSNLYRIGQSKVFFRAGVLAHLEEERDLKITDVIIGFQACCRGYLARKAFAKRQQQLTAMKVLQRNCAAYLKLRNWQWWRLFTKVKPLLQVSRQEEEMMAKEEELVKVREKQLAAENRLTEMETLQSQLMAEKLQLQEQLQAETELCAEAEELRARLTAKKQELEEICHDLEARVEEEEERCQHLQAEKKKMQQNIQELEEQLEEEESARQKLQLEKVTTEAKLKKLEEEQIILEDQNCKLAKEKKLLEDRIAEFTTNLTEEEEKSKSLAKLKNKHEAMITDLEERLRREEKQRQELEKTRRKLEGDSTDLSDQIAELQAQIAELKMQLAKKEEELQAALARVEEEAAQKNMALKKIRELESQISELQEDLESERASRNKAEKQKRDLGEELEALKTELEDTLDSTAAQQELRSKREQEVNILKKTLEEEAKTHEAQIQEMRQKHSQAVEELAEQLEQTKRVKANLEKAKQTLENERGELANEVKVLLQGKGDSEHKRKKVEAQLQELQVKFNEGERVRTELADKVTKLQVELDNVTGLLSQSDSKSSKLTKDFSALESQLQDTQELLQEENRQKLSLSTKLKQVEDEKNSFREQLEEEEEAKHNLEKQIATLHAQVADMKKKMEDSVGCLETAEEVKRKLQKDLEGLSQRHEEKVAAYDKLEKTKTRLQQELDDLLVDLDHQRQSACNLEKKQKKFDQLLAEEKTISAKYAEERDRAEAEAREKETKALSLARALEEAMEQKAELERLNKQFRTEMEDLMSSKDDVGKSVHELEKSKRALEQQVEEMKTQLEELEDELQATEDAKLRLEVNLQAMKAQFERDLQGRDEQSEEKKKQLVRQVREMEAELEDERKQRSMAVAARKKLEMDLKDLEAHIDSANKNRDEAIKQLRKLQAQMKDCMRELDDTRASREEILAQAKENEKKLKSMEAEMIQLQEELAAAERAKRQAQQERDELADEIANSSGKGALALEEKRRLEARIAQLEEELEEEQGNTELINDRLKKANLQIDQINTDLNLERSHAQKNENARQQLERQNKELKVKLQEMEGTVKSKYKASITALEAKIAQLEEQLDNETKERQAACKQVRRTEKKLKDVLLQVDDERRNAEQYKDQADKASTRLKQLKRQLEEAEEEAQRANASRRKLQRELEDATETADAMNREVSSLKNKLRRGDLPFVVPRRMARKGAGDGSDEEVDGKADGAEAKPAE

T1: Flag-TREX1 (three-prime repair exonuclease 1) (UniProt Q9NSU2)
T1 sequence: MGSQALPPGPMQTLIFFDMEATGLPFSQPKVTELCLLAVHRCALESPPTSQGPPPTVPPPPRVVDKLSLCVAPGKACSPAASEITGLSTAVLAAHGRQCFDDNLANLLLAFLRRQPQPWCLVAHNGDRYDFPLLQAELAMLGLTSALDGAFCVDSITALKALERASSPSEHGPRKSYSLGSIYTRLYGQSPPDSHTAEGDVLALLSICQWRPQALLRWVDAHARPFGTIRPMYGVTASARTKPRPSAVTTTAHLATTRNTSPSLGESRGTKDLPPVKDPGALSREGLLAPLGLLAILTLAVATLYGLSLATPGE

B1: RFWD3, endogenous (protein, UniProt Q6PCD5 1-774)
chain: MAHEAMEYDVQVQLNHAEQQPAPAGMASSQGGPALLQPVPADVVSSQGVPSILQPAPAEVISSQATPPLLQPAPQLSVDLTEVEVLGEDTVENINPRTSEQHRQGSDGNHTIPASSLHSMTNFISGLQRLHGMLEFLRPSSSNHSVGPMRTRRRVSASRRARAGGSQRTDSARLRAPLDAYFQVSRTQPDLPATTYDSETRNPVSEELQVSSSSDSDSDSSAEYGGVVDQAEESGAVILEEQLAGVSAEQEVTCIDGGKTLPKQPSPQKSEPLLPSASMDEEEGDTCTICLEQWTNAGDHRLSALRCGHLFGYRCISTWLKGQVRKCPQCNKKARHSDIVVLYARTLRALDTSEQERMKSSLLKEQMLRKQAELESAQCRLQLQVLTDKCTRLQRRVQDLQKLTSHQSQNLQQPRGSQAWVLSCSPSSQGQHKHKYHFQKTFTVSQAGNCRIMAYCDALSCLVISQPSPQASFLPGFGVKMLSTANMKSSQYIPMHGKQIRGLAFSSYLRGLLLSASLDNTIKLTSLETNTVVQTYNAGRPVWSCCWCLDEANYIYAGLANGSILVYDVRNTSSHVQELVAQKARCPLVSLSYMPRAASAAFPYGGVLAGTLEDASFWEQKMDFSHWPHVLPLEPGGCIDFQTENSSRHCLVTYRPDKNHTTIRSVLMEMSYRLDDTGNPICSCQPVHTFFGGPTCKLLTKNAIFQSPENDGNILVCTGDEAANSALLWDAASGSLLQDLQTDQPVLDICPFEVNRNSYLATLTEKMVHIYKWE
B2: KRT9 (protein, UniProt P35527 1-623)
chain: MSCRQFSSSYLSRSGGGGGGGLGSGGSIRSSYSRFSSSGGGGGGGRFSSSSGYGGGSSRVCGRGGGGSFGYSYGGGSGGGFSASSLGGGFGGGSRGFGGASGGGYSSSGGFGGGFGGGSGGGFGGGYGSGFGGFGGFGGGAGGGDGGILTANEKSTMQELNSRLASYLDKVQALEEANNDLENKIQDWYDKKGPAAIQKNYSPYYNTIDDLKDQIVDLTVGNNKTLLDIDNTRMTLDDFRIKFEMEQNLRQGVDADINGLRQVLDNLTMEKSDLEMQYETLQEELMALKKNHKEEMSQLTGQNSGDVNVEINVAPGKDLTKTLNDMRQEYEQLIAKNRKDIENQYETQITQIEHEVSSSGQEVQSSAKEVTQLRHGVQELEIELQSQLSKKAALEKSLEDTKNRYCGQLQMIQEQISNLEAQITDVRQEIECQNQEYSLLLSIKMRLEKEIETYHNLLEGGQEDFESSGAGKIGLGGRGGSGGSYGRGSRGGSGGSYGGGGSGGGYGGGSGSRGGSGGSYGGGSGSGGGSGGGYGGGSGGGHSGGSGGGHSGGSGGNYGGGSGSGGGSGGGYGGGSGSRGGSGGSHGGGSGFGGESGGSYGGGEEASGSGGGYGGGSGKSSHS

Target: T1, Flag-TREX1 (three-prime repair exonuclease 1)
Assay: affinity purification with mass spectrometry; A549 cells transfected with Flag-TREX1 or empty vector for 48 h; lysate in IP buffer (40 mM Tris-HCl pH 7.4, 150 mM NaCl, 0.5% NP-40); anti-Flag M2 magnetic beads 10 h at 4 °C; gel bands digested, LC-MS/MS

binding, binds:
DEAH-Box Helicase 15 (from UniProt O43143 1-795), Heat Shock Protein 90 Alpha Family Class B Member 1 (from UniProt P08238 1-724), Keratin 1 (from UniProt P04264 1-644), Splicing Factor 3b Subunit 1 (from UniProt O75533 1-1304), Albumin (from UniProt P02768 25-609), RNA Binding Motif Protein 10 (from UniProt P98175 1-930), Myosin Heavy Chain 9 (from UniProt P35579 1-1960), B1, B2

No constants are given. Whether binding was seen depends on the method and setting. Binding seen in cells or lysates may run through a third protein. These calls come from enrichment with a bait or labelling near it, and not all partners need be listed. Tags and fused reporters may be left off the sequences shown.
